Measurements published in paper PMC7405549.
No constants are given. Whether binding was seen depends on the method and setting. In cells and extracts the contact can be indirect. Some results given as binding are weak or reduced against the parent protein; the word gives no strength.

Experiments:
[1] = target: T1, Acheron/Larp6 (mouse) (mouse (endogenous in C2C12)) (UniProt Q8BN59); experiment: co-IP; mouse C2C12 myoblast lysates (400-500 ug) with rabbit polyclonal anti-Acheron antibody (1:200) overnight at 4°C, protein A sepharose; 10 mM Tris pH 7.4, 1% triton, 0.5% NP-40, 150 mM NaCl; immunoblot for partners
T1 sequence: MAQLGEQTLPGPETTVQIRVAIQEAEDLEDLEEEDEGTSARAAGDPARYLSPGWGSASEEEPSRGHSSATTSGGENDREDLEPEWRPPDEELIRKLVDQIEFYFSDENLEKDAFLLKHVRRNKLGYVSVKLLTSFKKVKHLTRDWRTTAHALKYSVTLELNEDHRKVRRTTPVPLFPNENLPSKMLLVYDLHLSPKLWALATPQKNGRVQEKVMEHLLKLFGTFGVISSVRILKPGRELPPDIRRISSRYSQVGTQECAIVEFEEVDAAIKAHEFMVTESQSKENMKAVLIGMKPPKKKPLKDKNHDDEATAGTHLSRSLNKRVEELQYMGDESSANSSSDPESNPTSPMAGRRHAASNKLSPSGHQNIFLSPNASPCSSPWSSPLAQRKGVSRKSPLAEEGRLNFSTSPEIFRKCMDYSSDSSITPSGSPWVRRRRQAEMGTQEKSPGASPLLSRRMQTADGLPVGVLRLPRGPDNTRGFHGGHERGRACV

[2] = target: T2, Acheron/LARP6 (human) (human (endogenous in HCC1935)) (UniProt Q9BRS8); experiment: co-IP; human HCC1935 breast cancer cells; data not shown
T2 sequence: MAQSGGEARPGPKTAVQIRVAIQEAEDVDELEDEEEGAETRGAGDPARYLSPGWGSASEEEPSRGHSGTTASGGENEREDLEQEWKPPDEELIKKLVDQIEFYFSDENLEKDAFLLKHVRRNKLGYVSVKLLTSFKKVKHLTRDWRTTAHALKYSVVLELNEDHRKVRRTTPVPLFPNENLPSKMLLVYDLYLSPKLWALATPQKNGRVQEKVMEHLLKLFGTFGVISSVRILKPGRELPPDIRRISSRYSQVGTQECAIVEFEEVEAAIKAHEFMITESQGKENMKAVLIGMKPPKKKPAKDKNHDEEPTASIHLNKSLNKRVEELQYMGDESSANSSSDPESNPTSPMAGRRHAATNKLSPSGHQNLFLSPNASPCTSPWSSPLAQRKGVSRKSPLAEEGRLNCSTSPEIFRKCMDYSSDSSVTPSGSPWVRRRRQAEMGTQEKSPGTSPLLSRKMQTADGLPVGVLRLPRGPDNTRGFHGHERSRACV

B1: CASK (mouse) (protein, UniProt O70589 1-926)
chain: MADDDVLFEDVYELCEVIGKGPFSVVRRCINRETGQQFAVKIVDVAKFTSSPGLSTEDLKREASICHMLKHPHIVELLETYSSDGMLYMVFEFMDGADLCFEIVKRADAGFVYSEAVASHYMRQILEALRYCHDNNIIHRDVKPHCVLLASKENSAPVKLGGFGVAIQLGESGLVAGGRVGTPHFMAPEVVKREPYGKPVDVWGCGVILFILLSGCLPFYGTKERLFEGIIKGKYKMNPRQWSHISESAKDLVRRMLMLDPAERITVYEALNHPWLKERDRYAYKIHLPETVEQLRKFNARRKLKGAVLAAVSSHKFNSFYGDPPEELPDFSEDPTSSGLLAAERAVSQVLDSLEEIHALTDCSEKDLDFLHSVFQDQHLHTLLDLYDKINTKSSPQIRNPPSDAVQRAKEVLEEISCYPENNDAKELKRILTQPHFMALLQTHDVVAHEVYSDEALRVTPPPTSPYLNGDSPESANGDMDMENVTRVRLVQFQKNTDEPMGITLKMNELNHCIVARIMHGGMIHRQGTLHVGDEIREINGISVANQTVEQLQKMLREMRGSITFKIVPSYRTQSSSCERDSPSTSRQSPANGHSSTNNSVSDLPSTTQPKGRQIYVRAQFEYDPAKDDLIPCKEAGIRFRVGDIIQIISKDDHNWWQGKLENSKNGTAGLIPSPELQEWRVACIAMEKTKQEQQASCTWFGKKKKQYKDKYLAKHNAVFDQLDLVTYEEVVKLPAFKRKTLVLLGAHGVGRRHIKNTLITKHPDRFAYPIPHTTRPPKKDEENGKNYYFVSHDQMMQDISNNEYLEYGSHEDAMYGTKLETIRKIHEQGLIAILDVEPQALKVLRTAEFAPFVVFIAAPTITPGLNEDESLQRLQKESDVLQRTYAHYFDLTIINNEIDETIRHLEEAVELVCTAPQWVPVSWVY
In the case of B1, the binding [1] is reported as “binds”.

B2: BAD (mouse) (protein, UniProt Q61337 1-204)
chain: MGTPKQPSLAPAHALGLRKSDPGIRSLGSDAGGRRWRPAAQSMFQIPEFEPSEQEDASATDRGLGPSLTEDQPGPYLAPGLLGSNIHQQGRAATNSHHGGAGAMETRSRHSSYPAGTEEDEGMEEELSPFRGRSRSAPPNLWAAQRYGRELRRMSDEFEGSFKGLPRPKSAGTATQMRQSAGWTRIIQSWWDRNLGKGGSTPSQ
With B2 the binding [1] was “binds”.

B3: BAD (human) (protein, UniProt Q92934 1-168)
chain: MFQIPEFEPSEQEDSSSAERGLGPSPAGDGPSGSGKHHRQAPGLLWDASHQQEQPTSSSHHGGAGAVEIRSRHSSYPAGTEDDEGMGEEPSPFRGRSRSAPPNLWAAQRYGRELRRMSDEFVDSFKKGLPRPKSAGTATQMRQSSSWTRVFQSWWDRNLGRGSSAPSQ
For B3, the binding [2] was “binds”.
